Where a name gives a salt, the structure may show the parent alone. The list shows a part of the results. Repeats in this data set agree poorly, so a single value says little.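 A screen tested FDA-approved drugs combined with one-eighth-MIC colistin against a clinical mcr-1-positive, multidrug-resistant E. coli isolate, measuring OD600 at 24 h. Controls were untreated bacteria (growth) and broth alone (blank). An OD600 under 0.2 marked a combination as active.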
system: Escherichia coli 42 (mcr-1-positive clinical isolate); test: OD600 after 24 h growth with compound plus colistin (absorbance units (OD600)); higher = more bacterial growth (less inhibition); details: first compound 25 µM; colistin concentration 0.5 ug/mL; incubation time 24 h; 37 °C

OD600, inactive:
CCC[C@H](N[C@@H](C)C(=O)N1[C@H](C(=O)O)C[C@@H]2CCCC[C@@H]21)C(=O)OCC [Perindopril erbumine] + CCC(C)CCCC(=O)N[C@@H](CCN)C(=O)N[C@H](C(=O)N[C@@H](CCN)C(=O)N[C@H]1CCNC(=O)[C@H]([C@@H](C)O)NC(=O)[C@H](CCN)NC(=O)[C@H](CCN)NC(=O)[C@H](CC(C)C)NC(=O)[C@@H](CC(C)C)NC(=O)[C@H](CCN)NC1=O)[C@@H](C)O [colistin] 1.02
CSc1ccc2c(c1)N(CCC1CCCCN1C)c1ccccc1S2 (centres undefined) [Thioridazine hydrochloride] + CCC(C)CCCC(=O)N[C@@H](CCN)C(=O)N[C@H](C(=O)N[C@@H](CCN)C(=O)N[C@H]1CCNC(=O)[C@H]([C@@H](C)O)NC(=O)[C@H](CCN)NC(=O)[C@H](CCN)NC(=O)[C@H](CC(C)C)NC(=O)[C@@H](CC(C)C)NC(=O)[C@H](CCN)NC1=O)[C@@H](C)O [colistin] 0.885
CCN(CC)C(=S)SSC(=S)N(CC)CC [Disulfiram] + CCC(C)CCCC(=O)N[C@@H](CCN)C(=O)N[C@H](C(=O)N[C@@H](CCN)C(=O)N[C@H]1CCNC(=O)[C@H]([C@@H](C)O)NC(=O)[C@H](CCN)NC(=O)[C@H](CCN)NC(=O)[C@H](CC(C)C)NC(=O)[C@@H](CC(C)C)NC(=O)[C@H](CCN)NC1=O)[C@@H](C)O [colistin] 0.407
O=c1[nH]c(=O)n([C@H]2C[C@H](O)[C@@H](CO)O2)cc1I [Idoxuridine] + CCC(C)CCCC(=O)N[C@@H](CCN)C(=O)N[C@H](C(=O)N[C@@H](CCN)C(=O)N[C@H]1CCNC(=O)[C@H]([C@@H](C)O)NC(=O)[C@H](CCN)NC(=O)[C@H](CCN)NC(=O)[C@H](CC(C)C)NC(=O)[C@@H](CC(C)C)NC(=O)[C@H](CCN)NC1=O)[C@@H](C)O [colistin] 1.28

From the supplement of paper PMC11546906
